Test results taken from a protein production outcome set (Wang et al. 2014).

experiment: label from the status in PepcDB records

**Q.** Which protein production does the source give for “MNPYVPDKLITAGIKHMKFWRKAGDVCIWRDIFLVKTVKAHDGPVFSMHALEKGFVTGGKDGIVALWDDSFERCLKTYAIKRAALAPGSKGLLLEDNPSIRAISLGHGHILVGTKNGEILEVDKSGPITLLVQGHMEGEVWGLATHPYLPICATVSDDKTLRIWDLSPSHCMLAVRKLKKGGRCCCFSPDGKALAVGLNDGSFLMANADTLEDLVSFHHRKDMISDIRFSPGSGKYLAVASHDSFIDIYNVMSSKRVGICKGATSYITHIDWDIRGKLLQVNTGAKEQLFFEAPRGKKQTIPSVEVEKIAWASWTSVLGLCCEGIWPVIGEVTDVTASCLTSDKMVLATGDDLGFVKLFRYPTKGKFGKFKRYVAHSTHVTNVRWTYDDSMLVTLGGTDMSLMVWTNEMEGYREKRPCDSEESDIDSEEDGGYDSDVTRENEISYTIRALSTNIRPMLGIKPHLQQKEPSIDERPPVSRAPPQPEKLQTNNVGKKKRPIEDLVLELIFGYRGRDCRNNVHYLNDGDDIIYHTASVGILHNVATGSQSFYQEHNDDILCLTVNQHPKFINIVATGQVGDSADMSATAPSIHIWDAMNKQTLSILRCYHSKGVCSVSFSATGKLLLSVGLDPEHTITIWRWQEGAKIASRAGHNQRIFVAEFRPDSDTQFVSVGVKHVKFWTLAGRALLSKKGLLSTLEDARMQTMLAIAFGANNLTFTGTISGDVCVWKDHILCRIVARAHNGPVFAMYTTLRDGLIVTGGKERPSKEGGAVKLWDQELRRCRAFRLETGQATDCVRSVCRGKVFTREDFESFHHKEMINV” here?
**A.** failed

**Q.** Which protein production does the source give for “MPDMSQLKELPFSTLQFYATAPYPSYLPGRQARSQVAAPGHLINTGTYSQLVEQGFRRSGLFTYRPHCDNCHACVPVRVDAARFEPNRTQRRAWRSHQALRAFVAELAWSPEHYDLYTRYQQGRHPGGGMDEDSRTQYAQFLLTTRVNTRLVKFRTPQGQLAMISIIDVLDDGLSSVYTFYDPDMAGSLGTYSILWQIEQCRTLDLPWLYLGYWIADSRKMAYKANFRPLQMHVDGAWRETPPLEHHHHHH” here?
**A.** failed

**Q.** Which protein production does the source give for “MQNNPSPQLPCKGILKTSRSFDKSGASFRKSAKFDELNVMQTFHPADKDYGHMKIDEPKTPYNYTEGFDENRDELDTELLVEKLRIAANTQPSTESIEDDGSSGDDQPLSEEERQRRREFERRRKAHYREFEAVKLARKLIQEEDDDDDDEDKGADSRPSGSSQGASSSGRFASSSTKRSSSQADSTTSPSTSAGQNMDLEPSNN” here?
**A.** failed

**Q.** With “MSLRNDATNAAGAVGAAMRDHILLPAQEMAKLGKSAQPVLTHAEGIYVHTEDGRRLIDGPAGMWCAQVGYGRREIVDAMAHQAMVLPYASPWYMATSPAARLAEKIATLTPGDLNRIFFTTGGSTAVDSALRFSEFYNNVLGRPQKKRIIVRYDGYHGSTALTAACTGRTGNWPNFDIAQDRISFLSSPNPRHAGNRSQEAFLDDLVQEFEDRIESLGPDTIAAFLAEPILASGGVIIPPAGYHARFKAICEKHDILYISDEVVTGFGRCGEWFASEKVFGVVPDIITFAKGVTSGYVPLGGLAISEAVLARISGENAKGSWFTNGYTYSNQPVACAAALANIELMEREGIVDQAREMADYFAAALASLRDLPGVAETRSVGLVGCVQCLLDPTRADGTAEDKAFTLKIDERCFELGLIVRPLGDLCVISPPLIISRAQIDEMVAIMRQAITEVSAAHGLTAKEPAAVEGHHHHHH” as the sequence, how does the protein production read?
**A.** not failed

**Q.** With “MTEKITLADALSNVEVLDELSLPDEQPCIEAQPCSIIYKANFDTNFEDRNGFVTGIAKYIEEATTHANLNVLLDEGQKHAVMLYTWRCCSRAIPQPKSNEQPNRVEIYEKTVEVLAPEVNKLLNFMYFQRKAIEAFSGEVKRLCHAEKRKDFVSEAYLLTLGKFINMFAVLDELKNMKSSVKNDYSTYRRAAQFLKVMSDSHTLQESQNLSMFLATQNKIRDTVKDTLEKIVGYEDLLSDVVNICVHMFETKMYLTPEEKHMLVKVMGFGLFLMDSDACNINKLDQKKKIRLDRIDRIFKNLEVVPLFGDMQIAPFNYIKRSKHFDSSKWPLSSSNAISPQADLMVHLPQIREDHVKYISELARYTNEVTTTVKENPSDAENRITADLALRGLQLLSEWTSVVTELYSWKLLHPTDHHQNKECPVEAEEYERATRYNYTSEEKFALIEVIAMIKGLQVLMARIETVLCEAIRRNIYSELQDFVQLSLREPLRKAVKNKKDLIRSIIMSVRETSADWQKGYEPTDDPVAKGKKDPDGGFRIQVPRLNVGPSSTQLYMVRTMLESLIADKSGGKRTLRKDIDGNCLLQIDTFHKTSFYWSYLLNFSDTLQKCCDLSQLWYREFYLEMTMGRKVNKCLVRHQHNEECKDLITMEKRIQFPIEMSMPWILTDHILQTKEPSMMEFVLYPLDLYNDSAYYALTVFRKQFLYDEVEAEVNLCFDQFVYKLSEQIFAHYKQLAGSIFLDKRFRLECEVLGFNFQSYPRNNRYETLLKQRHVQLLGRSIDLNKLITQRINANMHKSIELAISRFEGNDITGIVELEGLLEANRICHKLLSKYLALDNFDGMVKEANHNVLAPYGRITLHVFVELNYDFLVNYCYNAATNRFIRTKVNLSSSQAIQREKPPQMSHYYLWGSKQLNAAYSTQYGQYTGFVGSPHFHAMCRLLGYQGIAVVMDIILKDIVKPLIQGSLLQFTKTLMIAMPKSCKLPRCEYGSPGVLSYYQAHLTDIVQYPDAKTELFQSFREFGNSIIFCLLIEQALSQEEVCDLLHAALFQNIFPRPFCKENEKPEAKQKRLEAQFANLQIVSNVEKIGTAKQAMIAREGDLLTRERLCCGLSIFEVILNRVKSYLDDPVWCGPPPANGIIHVDECSEFHRLWSALQFVYCIPVRGTEYTIEELFGEGLNWAGCVMIVLLGQQRRFEALDFCYHILRVQRVDGKDEDVKGIQLKRMVDRIRRFQVLNSQIFSILNKYLKGGDGEGSNVEHVRCFPPPQHPSVISSSSHYQDPQKLRQSINN” as the sequence, how does the protein production read?
**A.** failed

**Q.** For “MTSASVKTVCPYCGVGCGMVLHVEGGEVVKVSGDAEHPANFGRLCTKGSSAHVALRNAGRLERAFVRDARERDPAPVPIADAIAETARRLRATLDAHGPDALAFYVSGQMSLEAQYLVNKLAKGYVRTPHIESNSRLCMASAGSGYKLSLGADGPPGSYQDFDCADLFFVIGSNMADCHPILFLRMMDRVKAGAKLVVVDPRRTATADKADLFLKIRPGTDLALLNGLLHLLHANGQTDADFIAAHTEGWAAMPDFLGDYTPEKVAAITGLTEADIRLAAQWIGDAREWTSCWTMGLNQSTHGTWNTNAICNLHLATGKICRPGSGPFSLTGQPNAMGGREMGYMGPGLPGQRSALDGDDRRFAEDVWGLPAGTIRADAGGGTVDLFARMAAGGVKACWIICTNPAATVANRKNVIAGLQAADVVIVQDAFLDTETNRYADILLPGALWAEAEGVMINSERNLTLMRRAVEPPGDAWPDWRIVAAVAREMGYGDAFDYGSAAEVFDEIRRFANPKTGYDLRGASHAALRDAPLQWPCPPHDGRDRHPIRYLNDGVSQARATLADGRVPPLAFPTPTGKARFFARPHVAPAEMPTPEFPIVLNTGRLQHQWHTMTKTGKVAMLNKLNPRPFVEIHPDDAAALSIAAKDAVEIRSARGRAVLPAVVTDRVRPGACFAPMHWNDVYGDDLCVNAVTNDAVDPVSLQPELKFCAVALARVDAMGNADVDADDETDDRVRASRAALHETGSHEADAHEADAHAAPDAHGASRAEADASEEHHMSDIDTFAALLGIPAAASAPQLTDAQRVYAAGFVSGLRSAEGRRAAGVPMLPASAPFDANTRLWVDGLLAGLFSRAPGGAAARVDARAAAQPAAIAAADASSAPSGVRIVRTRPKVVLLWASQTGNVESLTERYATQLMDSGFEIRVACMADYPAASLAKAQYALLMTSTFGDGDAPDNGQEFWAALNAADAARADGLRYAVLAFGDRNYDQFCGHGRRLDARLAALGATRLAERVDCDAEFQPAADAWLDRAIARIKEEDAALHAVPADGMIPSGAIPTKTRPAASRLVANLRLNAPGAAKDTRYVSLSTDGAAIEYEAGDALGVWPTNCPELVDELLTLTRLTPDAPVTVAGVGELRLADALAKHFDITRPHPDALAFVAARSRSGDALARLLGDDRKTDLKHWLWGQQLADVLHEFPLELSAVELVGMLKRLQPRLYSIASSPNAHRGEIHLTVSAVRYGNGRRQRKGVASTFLADRAADAPVPVFVQKSAHFRPPASGDAPIVMVGPGTGVAPFRGFLHERRARGAKGRNWLFFGEQHADTDFYYRDELAQMRADGFLTRLDVAFSRDQAEKVYVQDRMLEQGAALWAWLEEGAHFYVCGDASRMAKDVDAALKTIVARHGGMTDEQAADYVARLAKDKRYARDVY”, which protein production is on record?
**A.** failed

**Q.** With “MVIGTSAKHGWEVGLSRFTIKILWLNENVAIAVDQVVGKATSPLTAYYFWPRHDAWEQLKTELESKSWITEAERVELLNQATEVINYWQEEGKGKPLAQAQARFPELVFTGSNLEHHHHHH” as the sequence, how does the protein production read?
**A.** not failed

**Q.** With “SAKFKIRPATASDCSDILRLIKELAKYEYMEDQVVLTEKDLLEDGFGEHPFYHCLVAEVPKEHWTPEGHSIVGFAMYYFTYDPWIGKLLYLEDFFVMSDYRGFGIGSEILKNLSQVAMKCRCSSMHFLVAEWNEPSINFYKRRGASDLSSEEGWRLFKIDKEYLLKMAAEE” as the sequence, how does the protein production read?
**A.** failed
